{"source": "patent US10273257B2", "about": "“Cancer cell-containing composition” (KING FAHD UNIVERSITY OF PETROLEUM AND MINERALS, priority 2016, dated 2019)", "data": [{"tested_on": "CT DNA (calf thymus DNA)", "experiment": "Absorption spectral titration with CT-DNA (Wolfe-Shimmer equation)", "type": "binding", "conditions": "π→π* band at ca. 270 nm on addition of CT DNA", "units": {"Blue shift (nm)": "nm", "Hyperchromism (%)": "%"}, "values": [{"smiles": "CN(C)C(=S)[S][Au-][P+](C)(C)C", "note": "[Complex 1, (Me)3PAu(S2CN{Me}2)]", "Blue shift (nm)": 2, "Hyperchromism (%)": 22}, {"smiles": "CC[P+](CC)(CC)[Au-][S]C(=S)N(C)C", "note": "[Complex 2, (Et)3PAu(S2CN{Me}2)]", "Blue shift (nm)": 3, "Hyperchromism (%)": 31}, {"smiles": "CCN(CC)C(=S)[S][Au-][P+](C)(C)C", "note": "[Complex 3, (Me)3PAu(S2CN{Et}2)]", "Blue shift (nm)": 3, "Hyperchromism (%)": 37}, {"smiles": "CCN(CC)C(=S)[S][Au-][P+](CC)(CC)CC", "note": "[Complex 4, (Et)3PAu(S2CN{Et}2)]", "Blue shift (nm)": 5, "Hyperchromism (%)": 43}, {"smiles": "CC(C)[P+]([Au-][S]C(=S)N(C)C)(C(C)C)C(C)C", "note": "[Complex 5, (i-Pr)3PAu(S2CN{Me}2)]", "Blue shift (nm)": 0, "Hyperchromism (%)": 20}]}]}
